From publication PMC5823934
No constants are given. Whether binding was seen depends on the method and setting. In cells and extracts the contact can be indirect. Some results given as binding are weak or reduced against the parent protein; the word gives no strength.

Molecular target: epidermal growth factor receptor (EGFR) kinase (endogenous, RPE1 cells) (human (endogenous in RPE1)) (UniProt P00533)
Test: co-IP; anti-EGFR immunoprecipitates from serum-fed or serum-starved RPE1 cell lysates; anti-USP8 and anti-EGFR immunoblots

binding: binds
B1: USP8 (endogenous, RPE1 cells) (enzyme, UniProt P40818 1-1118)
chain: MPAVASVPKELYLSSSLKDLNKKTEVKPEKISTKSYVHSALKIFKTAEECRLDRDEERAYVLYMKYVTVYNLIKKRPDFKQQQDYFHSILGPGNIKKAVEEAERLSESLKLRYEEAEVRKKLEEKDRQEEAQRLQQKRQETGREDGGTLAKGSLENVLDSKDKTQKSNGEKNEKCETKEKGAITAKELYTMMTDKNISLIIMDARRMQDYQDSCILHSLSVPEEAISPGVTASWIEAHLPDDSKDTWKKRGNVEYVVLLDWFSSAKDLQIGTTLRSLKDALFKWESKTVLRNEPLVLEGGYENWLLCYPQYTTNAKVTPPPRRQNEEVSISLDFTYPSLEESIPSKPAAQTPPASIEVDENIELISGQNERMGPLNISTPVEPVAASKSDVSPIIQPVPSIKNVPQIDRTKKPAVKLPEEHRIKSESTNHEQQSPQSGKVIPDRSTKPVVFSPTLMLTDEEKARIHAETALLMEKNKQEKELRERQQEEQKEKLRKEEQEQKAKKKQEAEENEITEKQQKAKEEMEKKESEQAKKEDKETSAKRGKEITGVKRQSKSEHETSDAKKSVEDRGKRCPTPEIQKKSTGDVPHTSVTGDSGSGKPFKIKGQPESGILRTGTFREDTDDTERNKAQREPLTRARSEEMGRIVPGLPSGWAKFLDPITGTFRYYHSPTNTVHMYPPEMAPSSAPPSTPPTHKAKPQIPAERDREPSKLKRSYSSPDITQAIQEEEKRKPTVTPTVNRENKPTCYPKAEISRLSASQIRNLNPVFGGSGPALTGLRNLGNTCYMNSILQCLCNAPHLADYFNRNCYQDDINRSNLLGHKGEVAEEFGIIMKALWTGQYRYISPKDFKITIGKINDQFAGYSQQDSQELLLFLMDGLHEDLNKADNRKRYKEENNDHLDDFKAAEHAWQKHKQLNESIIVALFQGQFKSTVQCLTCHKKSRTFEAFMYLSLPLASTSKCTLQDCLRLFSKEEKLTDNNRFYCSHCRARRDSLKKIEIWKLPPVLLVHLKRFSYDGRWKQKLQTSVDFPLENLDLSQYVIGPKNNLKKYNLFSVSNHYGGLDGGHYTAYCKNAARQRWFKFDDHEVSDISVSSVKSSAAYILFYTSLGPRVTDVAT
